From the supplement of paper PMC12889115
The list shows a part of the results. Values are raw readings; no control value is given beside them.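 Primary screen: polymyxin B was added at a level permeabilizing Salmonella outer membranes while sparing inner membranes. DMSO wells, both with and without polymyxin B, established maximum growth. Plate-to-plate variation meant each plate was ranked on its own, and the lowest-OD600 compounds were selected as hits.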

System: Salmonella enterica serovar Typhimurium SL1344
Assay: bacterial growth OD600 after 18 h with compound and polymyxin B; higher = more bacterial growth (less inhibition)
Conditions: 50 µM, Mueller-Hinton broth

| Structure (SMILES) | bacterial growth OD600 (polymyxin B 0.75 µg/mL) | bacterial growth OD600 (polymyxin B 1 µg/mL) |
| --- | --- | --- |
| Cc1c(C(=O)NC(c2ccccc2)c2ccco2)sc2ncnc(NCCc3ccccn3)c12 (stereo unspecified) | 0.726 | – |
| COc1cc(Cl)c(CN2Cc3ccccc3OC(C)C2)cc1OC (stereo unspecified) | 0.696 | – |
| CC(Cc1cc(C(=O)N2CCC(O)(c3cccc(C(F)(F)F)c3)CC2)on1)c1ccccc1 (stereo unspecified) | 0.682 | – |
| COc1ccc(-c2nn(-c3ccccc3C)cc2CN(CC2CCC(=O)N2)C(C)C)cc1F (stereo unspecified) | – | 0.006 |
| CCN(CC)C(=O)Cn1cc(C(=O)N2CCN(c3nc4ccccc4s3)CC2)nn1 | – | 0.851 |
| COc1ccc(-n2cc(CN3CCC(OC)CC3)c(-c3cccc(F)c3)n2)cc1 | – | 0.71 |
| COc1ccc(Cl)cc1NC(=O)CCC1CCCN(C(=O)c2cc(C)[nH]n2)C1 (stereo unspecified) | – | 0.881 |
| O=C(CCc1nc(-c2ccccc2)no1)NC1CCCN(CCc2ccccc2)C1 (stereo unspecified) | – | 1.02 |
| O=C(c1cc(COc2cccc(C(F)(F)F)c2)[nH]n1)N1CCCC1 | – | 0.891 |
| CCCNC(=O)NC1CC(=O)N(Cc2cccc3ccccc23)C1 (stereo unspecified) | – | 1 |
| CC1CN(Cc2cccc3c2OCO3)Cc2cc(Cl)ccc2O1 (stereo unspecified) | 0.158 | – |
| COCCCNc1nncc(-c2ccc(OC)cc2OC)n1 | 0.83 | – |
| COCCn1cnc2cc(NC(=O)C3CCCCC3)cc(C(=O)NCCc3ccccc3OC)c21 | 0.784 | – |
| O=C(NCCC1=CCCCC1)C1CC12CCN(C(=O)CCc1cccnc1)CC2 (stereo unspecified) | 0.817 | – |
| COC(=O)c1cc(CNC(=O)CSc2ccccn2)cc(NC(=O)c2cccc(OC)c2)c1 | 0.588 | – |
| Cc1ccc(OCc2cc(C(=O)N3CCN(C4CCCCC4)CC3)no2)cc1C | – | 0.575 |

Exported as comma-separated lines: 9 of the compounds above.
Structure (SMILES),bacterial growth OD600 (polymyxin B 0.75 µg/mL),bacterial growth OD600 (polymyxin B 1 µg/mL)
COc1ccc(-n2cc(CN3CCC(OC)CC3)c(-c3cccc(F)c3)n2)cc1,–,0.71
COc1ccc(Cl)cc1NC(=O)CCC1CCCN(C(=O)c2cc(C)[nH]n2)C1 (stereo unspecified),–,0.881
O=C(CCc1nc(-c2ccccc2)no1)NC1CCCN(CCc2ccccc2)C1 (stereo unspecified),–,1.02
O=C(c1cc(COc2cccc(C(F)(F)F)c2)[nH]n1)N1CCCC1,–,0.891
CCCNC(=O)NC1CC(=O)N(Cc2cccc3ccccc23)C1 (stereo unspecified),–,1
CC1CN(Cc2cccc3c2OCO3)Cc2cc(Cl)ccc2O1 (stereo unspecified),0.158,–
COCCCNc1nncc(-c2ccc(OC)cc2OC)n1,0.83,–
COCCn1cnc2cc(NC(=O)C3CCCCC3)cc(C(=O)NCCc3ccccc3OC)c21,0.784,–
O=C(NCCC1=CCCCC1)C1CC12CCN(C(=O)CCc1cccnc1)CC2 (stereo unspecified),0.817,–

The listing continues.

| Structure (SMILES) | bacterial growth OD600 (polymyxin B 0.75 µg/mL) | bacterial growth OD600 (polymyxin B 1 µg/mL) |
| --- | --- | --- |
| OCCC1CN(Cc2ccc3c(c2)OCCO3)CCN1CC1CCCCC1 (stereo unspecified) | – | 0.889 |
| COc1ccc(OC)c(-c2cc(Cl)c3c(c2)CC(CNC(=O)[C@H](CC(C)C)NC(C)=O)O3)c1 (stereo partly specified) | 0.772 | – |
| CCN(CC1CCCN(CCc2cccc(OC)c2)C1)C(=O)C1=C(C)OCCO1 (stereo unspecified) | – | 1.06 |
| CSCCNC(=O)c1coc(COc2ccc(F)cc2)n1 | – | 0.855 |
| CCOC(=O)C1(Cc2cccc(OC)c2)CCN(Cc2ccc(OC)c(OC)c2)CC1 | – | 0.78 |
| CC1(C)CC(NC2CCN(c3ccc(C(=O)NCc4ccc5c(c4)OCO5)cc3)CC2)CCO1 (stereo unspecified) | 0.822 | – |
| O=C(c1ccccc1OC1CCN(Cc2ccc(Cl)s2)CC1)N1CCCCC1 | – | 0.009 |
| CCOC(=O)N1CCC(N2CCCC(Nc3ccc(C)c(C)c3)C2)CC1 (stereo unspecified) | – | 0.889 |
| Cc1ccccc1N1C(=O)CN(C(=O)CCc2nc3ccccc3s2)CC1C (stereo unspecified) | 0.799 | – |
| CC(C)c1nc(C(=O)N2CCC3(CCCN(CC4CC4)C3)C2)cs1 (stereo unspecified) | – | 1.15 |
| CCOc1cc(CN2CCC(n3nccc3NC(=O)C(C)(C)C)CC2)ccc1OC | – | 0.948 |
| O=C(CCC1CCCN(C(=O)Cn2cnc3ccccc32)C1)NCc1ccccc1F (stereo unspecified) | – | 1.14 |
| C#CCN(CC=C)Cc1nc(-c2cc(OC)ccc2OC)oc1C | – | 0.798 |
| COc1cc2nc(-c3cc4c(c(OC)c3)OCCN(C(=O)CC3CCCC3)C4)cc(C)c2cc1OC | 0.971 | – |
| CCCN1CCC(CC(=O)N2CCCC(N3CCN(c4ccc(F)cc4)CC3)C2)CC1 (stereo unspecified) | – | 0.914 |
